Data: PubChem BioAssay (NCATS)
Inconclusive means that the source gave no clear call. Such entries were picked first, then a sample of the others. Where the call is inconclusive, the potency comes from a doubtful curve fit. Activity calls are given as the source filed them. The call rests on the fitted dose curve; in most records, active means well fitted cell-killing curve with a large enough effect; inconclusive means small, poorly fitted or top-dose-only effect; inactive means flat fitted curve, though single readings scatter.

Assay: Quantitative highthroughput screen to assess conditional lethalithy of P12 Ichikawa cells grown in Human Plasma-Like Medium with dialyzed fetal bovine serum (HPLM+ds) (AID 1963879); further: nearly all actives have a fitted effect of over 35% in size
Conditions: ATP luminescence, 48 h; Potency: viability; series mostly up to 45.8 µM
Text: Assay Provider: Jason Cantor Ph.D.
Department of Biochemistry
University of Wisconsin-Madison, Madison, WI, USA
Chemical screening studies have identified drug sensitivities across hundreds of cancer cell lines but most putative therapeutics fail to translate. Discovery and development of drug candidates in models that more accurately reflect nutrient levels in human blood is a major challenge. Here we performed high-throughput screens in conventional versus Human Plasma-Like Medium (HPLM) to identify compounds that were "missed" when screening using the artificial culture condition. Sets of conditional anticancer compounds spanned phases of clinical development and included non-oncology drugs were assessed. […] We also traced conditional phenotypes for several chemotherapeutics to availability of HPLM-specific metabolites and confirmed others for compounds whose reported targets are encoded by nonessential genes. Our findings establish generalizable strategies for exploiting conditional lethality in HPLM to reveal therapeutic candidates and mechanisms of action in cancer cells.
Described herein are the results of each viability screens against three cell lines: NOMO1 (an acute myeloid leukemia cell line); P12-Ichikawa (a T-cell acute lymphoblastic leukemia); and SEM (a B-cell ALL). Each assay was screened using 3 different cell culture media: homemade human plasma-Like medium with 10% dialyzed fetal bovine serum (HPLM+ds); RPMI1640 with 10% untreated FBS and 5mM glucose (RPMI+s); and RPMI1640 with 10% dialyzed fetal bovine serum and 5 mM glucose (RPMI+ds).
PROTOCOL TABLE (as described by Inglese J, Shamu CE and Guy RK. 2007)
SEQUENCE No. (e.g., 1, 2, 3, etc.); […] (e.g., Cells, Incubation, Reagent, etc.); VALUE and DESCRIPTION.
1; Cells; 5 uL; white, solid bottom 1536-well Greiner assay plate.
2; Compounds; 23 nL; Kalypsis pin tool (Wako USA) equipped with a 1536-well pin head to transfer to the assay plates.
3; Incubation; 48 hours; 37C incubation.
4; Reagent; 3 uL; CellTiter Glo (Promega).
5; Incubation; 5 min, room temperature
6; Detection; Luminescence, Viewlux PerkinElmer.
NOTES (numbers refer to Sequence numbers above)
1. Briefly, 5 ul of cell reagent was dispensed using a Multidrop Combi Dispenser. The NOMO1 and SEM cells were plated at 500 cells/well and the P12-Ichikawa line at 1000 cells/well.
2. After seeding the cells, 23 nL of MIPE 4.1 library compounds (in DMSO) were added to each plate using a Kalypsys 1536 Pintool dispenser. Bortezomib at final concentration of […] and DMSO were added to each plate as positive and negative controls respectively. For each screen, MIPE 4.1 compounds were added over an eleven-point concentration range […] in 3-fold dilutions.
3. Each plate was covered with a stainless steel gasketed lid to prevent evaporation and incubated for 48 hour at 37C, 95% relative humidity, and 5% CO2.
4-5. Three microliter CellTilter-GloTM luminescent substrate mix (Promega) reagent was added to the assay plate and incubated at room temperature for 5 min.
6. The luminescence signal was measured using a ViewLux (PerkinElmer) multiplate reader with a 2 second exposure time per plate. Data for each compound were normalized as percent viability such that measurements for DMSO and the empty well controls in each plate were defined as 100% and 0%, respectively.
Potency means the concentration at half of the fitted maximal effect.

| SMILES | Potency |
| --- | --- |
| Nc1nc(=O)n([C@H]2CSC(CO)O2)cc1F (stereo not given in full) | inactive |
| CCc1cc(Nc2nccc(-c3c(-c4ccc(OC)c(C(=O)Nc5c(F)cccc5F)c4)nc4ccccn34)n2)c(OC)cc1N1CCC(N2CCN(S(C)(=O)=O)CC2)CC1 | inconclusive: 20.9 µM [cytotoxic, partial curve] |
| O=C(NCCO[N+](=O)[O-])c1cccnc1 | inactive |
| Nc1ncnc2c1c(-c1cccc(OCc3ccccc3)c1)cn2C1CC(CN2CCCC2)C1 (stereo not given) | inconclusive: 33.2 µM [cytotoxic, single point] |
| O=c1[nH]c(=O)n([C@H]2C[C@@H](O)[C@@H](CO)O2)cc1F | active: 0.0833 µM |
| Cc1nn(C)c2c1C(c1ccc(C(F)(F)F)cc1)C(C#N)=C(N)O2 (stereo not given) | inactive |
| CCc1ccc(C(=O)Nc2cc(CN3CCN(C)CC3)cc(C(F)(F)F)c2)cc1C#Cc1cnc2ccnn2c1 | inactive |
| CON=C(C(=O)N[C@@H]1C(=O)N2C(C(=O)OCOC(=O)C(C)(C)C)=C(C=Cc3scnc3C)CS[C@H]12)c1csc(N)n1 | inconclusive: 16.6 µM [cytotoxic, partial curve, poor fit] |
| Cc1cc2c(F)c(Oc3ncnn4cc(OC[C@@H](C)O)c(C)c34)ccc2[nH]1 | inconclusive: 16.6 µM [cytotoxic, partial curve] |
| Cc1cc(Nc2ncc(Cl)c(Nc3ccccc3S(=O)(=O)C(C)C)n2)c(OC(C)C)cc1C1CCNCC1 | inconclusive: 26.3 µM [cytotoxic, single point] |
| N#CC1(c2cccc(C(=O)Nc3cc(Oc4ccc5nc(NC(=O)C6CC6)sc5n4)ccc3F)c2Cl)CC1 | active: 5.9 µM |
| CC1(C)C(=O)N(CCN2CCC(C(=O)c3ccc(F)cc3)CC2)c2ccccc21 | inactive |
| C=CC[C@@H]1C=C(C)C[C@H](C)C[C@H](OC)[C@H]2O[C@@](O)(C(=O)C(=O)N3CCCC[C@H]3C(=O)O[C@H](C(C)=C[C@@H]3CC[C@H](O)[C@H](OC)C3)[C@@H](C)[C@@H](O)CC1=O)[C@@H](C)C[C@@H]2OC | inconclusive: 14.8 µM [cytotoxic, partial curve, poor fit] |
| O=c1[nH]c(=O)n([C@H]2C[C@@H](O)[C@@H](CO)O2)cc1C=CBr | inconclusive: 0.0833 µM [cytotoxic, full curve] |
| CN(C)C(=O)COC(=O)Cc1ccc(OC(=O)c2ccc(N=C(N)N)cc2)cc1 | inconclusive: 14.8 µM [cytotoxic, partial curve] |
| C[C@@H]1CCO[C@H]2Cn3cc(C(=O)NCc4ccc(F)cc4F)c(=O)c(O)c3C(=O)N12 | inactive |
| O=C(C=CC=Cc1ccc2c(c1)OCO2)N1CCCCC1 | inactive |
| CCn1cc(C(=O)O)c(=O)c2cc(F)c(N3CCNCC3)cc21 | inconclusive: 16.6 µM [cytotoxic, partial curve, poor fit] |
| Cc1nc2n(c(=O)c1CCN1CCC(c3noc4cc(F)ccc34)CC1)CCCC2 | inactive |

| SMILES | Potency |
| --- | --- |
| Cn1c2cc(S(C)=O)sc2c2cnn(Cc3cccc(N)c3)c(=O)c21 (stereo not given) | inconclusive: 16.6 µM [cytotoxic, partial curve] |
| CCC(C(=O)O)C1CCC(C)C(C(C)C(O)C(C)C(=O)C(CC)C2OC3(C=CC(O)[C@@]4(CC[C@](C)(C5CC[C@@](O)(CC)C(C)O5)O4)O3)C(C)CC2C)O1 (stereo not given in full) | inconclusive: 1.32 µM [cytotoxic, full curve, poor fit] |
| CCOC(=O)c1ccc(C#Cc2ccc3c(c2)C(C)(C)CCS3)nc1 | inconclusive: 29.6 µM [cytotoxic, partial curve, poor fit] |
| COC(=O)Nc1nc2ccc(Sc3ccccc3)cc2[nH]1 | inconclusive: 2.35 µM [cytotoxic, full curve] |
| COc1cc2ncnc(-n3nc(-c4ccccn4)nc3N)c2cc1OC | inconclusive: 37.2 µM [cytotoxic, single point] |
| CCc1cnn2c(NCc3ccc[n+]([O-])c3)cc(N3CCCC[C@@H]3CCO)nc12 | active: 0.118 µM |
| Nc1ncnc2nc(-c3ccc(N4CCOCC4)nc3)cc(-c3cccc(Br)c3)c12 | inactive |
| COc1ccc2cc([C@H](C)C(=O)O)ccc2c1 | inactive |
| O=C(Nc1ccccc1)Nc1ccc(-c2ccc(C(=O)[C@H]3CCC[C@H]3C(=O)O)cc2)cc1 | inactive |
| CCOC(=O)N1CCN([N+]([O-])=NOc2ccc([N+](=O)[O-])cc2[N+](=O)[O-])CC1 | inconclusive: 33.2 µM [cytotoxic, single point] |
| COC(=O)N[C@H](C(=O)N[C@@H](Cc1ccccc1)[C@@H](O)CN(Cc1ccc(-c2ccccn2)cc1)NC(=O)[C@@H](NC(=O)OC)C(C)(C)C)C(C)(C)C | inconclusive: 37.2 µM [cytotoxic, single point] |
| O=c1c(O)c(-c2cc(O)c(O)c(O)c2)oc2cc(O)cc(O)c12 | inactive |
| O=c1[nH]c(=O)n([C@H]2C[C@@H](O)[C@@H](CO)O2)cc1C(F)(F)F | active: 1.18 µM |
| C=CCNC1=C2C[C@@H](C)C[C@H](OC)[C@@H](O)[C@@H](C)C=C(C)[C@H](OC(N)=O)[C@@H](OC)C=CC=C(C)C(=O)NC(=CC1=O)C2=O | inconclusive: 14.8 µM [cytotoxic, partial curve] |
| CC[C@H](C)n1cc(C)c2c(C(=O)NCc3c(C)cc(C)[nH]c3=O)cc(-c3ccc(N4CCNCC4)nc3)cc21 | inactive |
| O=C1NC(=O)C(=Cc2ccc3nccnc3c2)S1 | inactive |
| Cc1ccc(CN2CCNCC2)cc1NC(=O)CNc1ccc(F)c(F)c1 | inactive |
| Oc1c(Cl)cc(Cl)c2cccnc12 | inconclusive: 26.4 µM [cytotoxic, partial curve, poor fit] |
| Cc1cn2cc(C(=O)N(C)CCO)cc(N[C@@H]3CCOc4cccc(C)c43)c2n1 | inactive |

2 entries picked at random from those above, as already listed:

| SMILES | Potency |
| --- | --- |
| COc1cc2ncnc(-n3nc(-c4ccccn4)nc3N)c2cc1OC | inconclusive: 37.2 µM [cytotoxic, single point] |
| Oc1c(Cl)cc(Cl)c2cccnc12 | inconclusive: 26.4 µM [cytotoxic, partial curve, poor fit] |
